Results are given in words; binding and its absence hold for the method and conditions named. In cells and extracts the contact can be indirect. A result given as binding can be weak or reduced; the word gives no strength.
Target: GST-tagged IL13Rα1 (human) (UniProt P78552)
Experiment: pull-down; GST-IL13Rα1 on Glutathione-Sepharose 4B beads incubated with LNCaP whole cell lysate at 4 °C overnight; immunoblot with anti-HK2; only the target purified

By UniProt entry, the sequences of proteins in these tests, tags left out. Where a name states a change or a piece, a line headed by the entry shows the natural chain unless it says otherwise.
UniProt P78552: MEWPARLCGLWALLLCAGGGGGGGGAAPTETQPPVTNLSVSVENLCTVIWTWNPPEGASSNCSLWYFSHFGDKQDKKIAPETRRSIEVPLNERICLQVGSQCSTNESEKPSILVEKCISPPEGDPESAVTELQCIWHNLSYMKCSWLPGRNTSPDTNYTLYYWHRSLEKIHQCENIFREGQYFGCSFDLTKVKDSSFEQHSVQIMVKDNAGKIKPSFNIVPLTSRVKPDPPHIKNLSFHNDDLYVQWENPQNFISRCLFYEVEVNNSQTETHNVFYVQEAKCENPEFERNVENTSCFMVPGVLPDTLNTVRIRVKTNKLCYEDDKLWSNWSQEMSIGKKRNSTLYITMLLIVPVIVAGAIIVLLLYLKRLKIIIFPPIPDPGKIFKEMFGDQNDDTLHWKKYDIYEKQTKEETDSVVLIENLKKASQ

binding: binds
B1: hexokinase 2 (endogenous, LNCaP) (enzyme, UniProt P52789 1-917)
chain: MIASHLLAYFFTELNHDQVQKVDQYLYHMRLSDETLLEISKRFRKEMEKGLGATTHPTAAVKMLPTFVRSTPDGTEHGEFLALDLGGTNFRVLWVKVTDNGLQKVEMENQIYAIPEDIMRGSGTQLFDHIAECLANFMDKLQIKDKKLPLGFTFSFPCHQTKLDESFLVSWTKGFKSSGVEGRDVVALIRKAIQRRGDFDIDIVAVVNDTVGTMMTCGYDDHNCEIGLIVGTGSNACYMEEMRHIDMVEGDEGRMCINMEWGAFGDDGSLNDIRTEFDQEIDMGSLNPGKQLFEKMISGMYMGELVRLILVKMAKEELLFGGKLSPELLNTGRFETKDISDIEGEKDGIRKAREVLMRLGLDPTQEDCVATHRICQIVSTRSASLCAATLAAVLQRIKENKGEERLRSTIGVDGSVYKKHPHFAKRLHKTVRRLVPGCDVRFLRSEDGSGKGAAMVTAVAYRLADQHRARQKTLEHLQLSHDQLLEVKRRMKVEMERGLSKETHASAPVKMLPTYVCATPDGTEKGDFLALDLGGTNFRVLLVRVRNGKWGGVEMHNKIYAIPQEVMHGTGDELFDHIVQCIADFLEYMGMKGVSLPLGFTFSFPCQQNSLDESILLKWTKGFKASGCEGEDVVTLLKEAIHRREEFDLDVVAVVNDTVGTMMTCGFEDPHCEVGLIVGTGSNACYMEEMRNVELVEGEEGRMCVNMEWGAFGDNGCLDDFRTEFDVAVDELSLNPGKQRFEKMISGMYLGEIVRNILIDFTKRGLLFRGRISERLKTRGIFETKFLSQIESDCLALLQVRAILQHLGLESTCDDSIIVKEVCTVVARRAAQLCGAGMAAVVDRIRENRGLDALKVTVGVDGTLYKLHPHFAKVMHETVKDLAPKCDVSFLQSEDGSGKGAALITAVACRIREAGQR

Source: paper PMC9334759
